US10759740B2, “Antibacterial agents” (Rutgers, The State University of New Jersey, priority 2016, dated 2020)

Columns and labels:
[1] = test system: Human foreskin fibroblast (HFF) cells; format: cell-based; conditions: for S.I. G− (IC50/MIC): IC50/MIC using E. coli; for S.I. G+ (IC50/MIC): IC50/MIC using S. aureus
Protocol: HFFs were cultured in DMEM supplemented with 10% fetal bovine serum, 1% penicillin/streptomycin and plated at a concentration of 10,000 cells/well in 96-well plate. Plates were incubated at 37° C. and 5% CO2 for 24 h to allow cell attachment prior to use.
CAMs were tested for cytotoxicity against HFFs using a tetrazolium-based colorimetric assay (MTT). CAMs were first dissolved in ddH2O and then diluted in cell medium (DMEM supplemented with 1% penicillin/streptomycin) to reach concentrations of 15.6, 3.9, and 0.95 μg/mL. 100 μL cell media containing CAMs were then added to allocated wells in a 96-well plate. Cells treated with only 1% Triton X-100 and cell medium were used as positive and negative controls, respectively. After 24 h incubation, the medium was removed and replaced with fresh medium. 20 μL of MTT reagent (12 mM in PBS) was then added to each well and further incubated for 4 h at 37° C. Formazan crystals were subsequently dissolved in 100 μL acidified SDS solution at 37° C. for 4 h. […] The following is used to calculate the percent of cell viability of HFFs: […]

[2] = test system: Human red blood cells (RBCs); conditions: for S.I. G− (HC50/MIC): HC50/MIC using E. coli; for S.I. G+ (HC50/MIC): HC50/MIC using S. aureus

| Compound | S.I. G− (IC50/MIC) [1] | S.I. G+ (IC50/MIC) [1] | S.I. G− (HC50/MIC) [2] | S.I. G+ (HC50/MIC) [2] |
| --- | --- | --- | --- | --- |
| CCCCCCCCCCOC(C(=O)NCCN)C(OCCCCCCCCCC)C(=O)NCCN.Cl.Cl (centres unmarked) [5b] | 1.4 | 5.9 | 17 | 68 |
| CCCCCCCCCCCCOC(C(=O)NCCN)C(OCCCCCCCCCCCC)C(=O)NCCN.Cl.Cl (centres unmarked) [5c] | – | – | – | >64 |
| CCCCCCCC(=O)OC(C(=O)NCCN)C(OC(=O)CCCCCCC)C(=O)NCCN.Cl.Cl (centres unmarked) [8a] | 0.9 | 1.8 | 2 | 4 |
| CCCCCCCCCC(=O)OC(C(=O)NCCN)C(OC(=O)CCCCCCCCC)C(=O)NCCN.Cl.Cl (centres unmarked) [8b] | 1.7 | 7.3 | 11 | 43 |
| CCCCCCCCCCCC(=O)OC(C(=O)NCCN)C(OC(=O)CCCCCCCCCCC)C(=O)NCCN.Cl.Cl (centres unmarked) [8c] | – | – | – | >16 |
